In paper PMC6952817:
These are yes or no findings as the source states them, for the method shown. Binding seen in cells or lysates may run through a third protein. Some binding calls cover weakened binding; strength is not graded here.

The chains behind the UniProt entries cited, without tags or fusion partners. Where a name states a change or a piece, a line headed by the entry shows the natural chain unless it says otherwise.
UniProt P06213: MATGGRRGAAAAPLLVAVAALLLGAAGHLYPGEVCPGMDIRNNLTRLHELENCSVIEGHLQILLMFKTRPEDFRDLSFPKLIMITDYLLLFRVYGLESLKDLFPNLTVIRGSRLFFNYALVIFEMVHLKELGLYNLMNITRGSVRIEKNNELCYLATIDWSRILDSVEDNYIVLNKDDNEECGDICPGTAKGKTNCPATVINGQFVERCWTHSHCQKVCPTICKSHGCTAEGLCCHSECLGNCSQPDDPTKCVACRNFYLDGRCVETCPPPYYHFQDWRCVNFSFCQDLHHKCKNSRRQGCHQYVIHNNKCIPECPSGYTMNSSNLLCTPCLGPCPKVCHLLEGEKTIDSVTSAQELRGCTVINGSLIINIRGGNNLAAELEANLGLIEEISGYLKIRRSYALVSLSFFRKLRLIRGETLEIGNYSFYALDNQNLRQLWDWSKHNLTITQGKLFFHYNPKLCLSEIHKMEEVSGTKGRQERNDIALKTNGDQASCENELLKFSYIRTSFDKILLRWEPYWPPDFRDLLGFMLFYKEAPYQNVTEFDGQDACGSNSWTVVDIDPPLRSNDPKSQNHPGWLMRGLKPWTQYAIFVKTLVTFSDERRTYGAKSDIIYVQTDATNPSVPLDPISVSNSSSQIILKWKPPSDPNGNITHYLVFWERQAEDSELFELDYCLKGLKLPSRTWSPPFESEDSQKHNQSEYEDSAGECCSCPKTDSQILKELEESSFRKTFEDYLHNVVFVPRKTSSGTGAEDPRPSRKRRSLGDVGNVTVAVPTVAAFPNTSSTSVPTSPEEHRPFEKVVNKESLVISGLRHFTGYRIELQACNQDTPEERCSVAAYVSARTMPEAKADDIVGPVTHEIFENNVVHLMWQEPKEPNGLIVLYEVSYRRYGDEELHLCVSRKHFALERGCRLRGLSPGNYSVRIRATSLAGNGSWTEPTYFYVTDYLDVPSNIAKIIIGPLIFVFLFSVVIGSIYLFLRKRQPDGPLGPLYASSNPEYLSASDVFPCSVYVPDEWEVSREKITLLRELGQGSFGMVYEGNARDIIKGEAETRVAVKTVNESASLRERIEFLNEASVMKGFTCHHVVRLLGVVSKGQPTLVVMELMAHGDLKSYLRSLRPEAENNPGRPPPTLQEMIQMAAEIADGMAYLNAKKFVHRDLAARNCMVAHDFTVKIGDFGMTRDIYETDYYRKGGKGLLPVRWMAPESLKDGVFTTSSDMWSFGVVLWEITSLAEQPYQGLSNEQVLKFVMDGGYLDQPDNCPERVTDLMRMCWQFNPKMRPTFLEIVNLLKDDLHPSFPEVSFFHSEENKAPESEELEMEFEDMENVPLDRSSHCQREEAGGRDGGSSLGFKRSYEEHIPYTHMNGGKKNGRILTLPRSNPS
UniProt P08069: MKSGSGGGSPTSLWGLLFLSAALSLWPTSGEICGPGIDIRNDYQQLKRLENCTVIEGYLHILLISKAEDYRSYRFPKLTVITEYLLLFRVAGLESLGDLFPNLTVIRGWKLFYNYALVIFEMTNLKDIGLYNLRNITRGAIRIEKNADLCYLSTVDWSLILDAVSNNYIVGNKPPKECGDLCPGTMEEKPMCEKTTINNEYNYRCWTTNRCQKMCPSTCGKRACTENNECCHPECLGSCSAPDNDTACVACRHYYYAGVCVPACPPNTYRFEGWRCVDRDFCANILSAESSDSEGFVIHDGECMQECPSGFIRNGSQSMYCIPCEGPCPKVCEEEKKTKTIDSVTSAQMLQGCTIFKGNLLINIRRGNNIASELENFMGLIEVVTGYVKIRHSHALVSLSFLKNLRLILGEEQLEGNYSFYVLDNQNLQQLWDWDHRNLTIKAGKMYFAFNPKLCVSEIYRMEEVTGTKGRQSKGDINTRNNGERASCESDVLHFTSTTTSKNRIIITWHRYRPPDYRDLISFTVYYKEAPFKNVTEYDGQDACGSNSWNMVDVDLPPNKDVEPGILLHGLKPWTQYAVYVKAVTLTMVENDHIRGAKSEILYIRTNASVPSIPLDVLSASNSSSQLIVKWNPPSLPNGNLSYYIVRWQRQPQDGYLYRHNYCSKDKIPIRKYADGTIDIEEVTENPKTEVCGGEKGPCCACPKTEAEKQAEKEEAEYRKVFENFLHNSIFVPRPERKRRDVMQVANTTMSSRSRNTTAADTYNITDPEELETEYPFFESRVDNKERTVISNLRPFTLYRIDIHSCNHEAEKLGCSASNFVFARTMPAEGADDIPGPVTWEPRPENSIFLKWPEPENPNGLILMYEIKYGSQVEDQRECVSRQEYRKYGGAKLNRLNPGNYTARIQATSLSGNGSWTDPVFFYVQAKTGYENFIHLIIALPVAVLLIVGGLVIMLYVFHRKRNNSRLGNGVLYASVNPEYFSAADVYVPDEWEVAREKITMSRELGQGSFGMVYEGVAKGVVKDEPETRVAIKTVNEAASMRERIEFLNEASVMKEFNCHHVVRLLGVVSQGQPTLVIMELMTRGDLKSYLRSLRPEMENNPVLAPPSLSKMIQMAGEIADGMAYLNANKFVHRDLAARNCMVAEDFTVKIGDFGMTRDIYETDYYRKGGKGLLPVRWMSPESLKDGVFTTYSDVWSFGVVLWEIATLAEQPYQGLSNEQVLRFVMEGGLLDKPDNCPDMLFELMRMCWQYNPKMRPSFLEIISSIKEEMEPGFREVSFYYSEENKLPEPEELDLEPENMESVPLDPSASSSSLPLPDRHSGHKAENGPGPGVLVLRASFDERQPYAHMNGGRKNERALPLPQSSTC
UniProt P28482: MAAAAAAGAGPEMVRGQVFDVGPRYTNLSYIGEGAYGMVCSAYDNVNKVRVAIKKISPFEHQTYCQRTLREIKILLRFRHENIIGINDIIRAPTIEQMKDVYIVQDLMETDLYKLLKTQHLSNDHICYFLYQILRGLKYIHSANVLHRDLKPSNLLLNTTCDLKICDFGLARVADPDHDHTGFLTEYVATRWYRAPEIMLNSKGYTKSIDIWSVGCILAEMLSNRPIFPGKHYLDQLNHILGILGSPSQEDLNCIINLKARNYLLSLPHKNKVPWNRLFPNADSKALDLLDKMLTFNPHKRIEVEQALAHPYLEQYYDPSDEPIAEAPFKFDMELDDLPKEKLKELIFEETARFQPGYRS
UniProt P27361: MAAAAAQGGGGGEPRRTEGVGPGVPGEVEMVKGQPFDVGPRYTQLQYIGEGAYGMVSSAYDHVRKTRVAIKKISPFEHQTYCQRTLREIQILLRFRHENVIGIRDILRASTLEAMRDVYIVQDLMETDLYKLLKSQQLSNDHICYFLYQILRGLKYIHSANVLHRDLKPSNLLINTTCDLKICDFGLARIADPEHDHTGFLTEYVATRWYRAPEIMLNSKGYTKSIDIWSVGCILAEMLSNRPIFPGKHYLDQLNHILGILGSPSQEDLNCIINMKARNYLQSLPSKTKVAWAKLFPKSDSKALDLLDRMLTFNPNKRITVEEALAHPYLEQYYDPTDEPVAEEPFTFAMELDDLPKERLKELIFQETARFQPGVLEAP

Assays:
[1] = target: insulin receptor (INSR) (human (endogenous in MCF7)) (UniProt P06213); experiment: co-IP; total lysates, cytoplasmic and nuclear extracts of MCF7 IGF1R-KD cells (IP anti-INSR beta-subunit) and INSR-KD cells (IP anti-IGF1R beta-subunit); 1% Triton X-100, 150 mM NaCl, 20 mM Tris pH 7.5, overnight at 4 C, protein A/G-agarose; blotted with anti-ERK1/2 or anti-AKT; IgG as control
[2] = target: insulin-like growth factor-1 receptor (IGF1R) (human (endogenous in MCF7)) (UniProt P08069); experiment: as above

Substance	binding [1]	binding [2]
extracellular signal-regulated kinase 2 (ERK2) (from UniProt P28482 1-360) (enzyme)	binds	binds
extracellular signal-regulated kinase 1 (ERK1) (from UniProt P27361 1-379) (enzyme)	binds	binds
